# In PMC7460215:
# Sequences of proteins named here, by UniProt entry; tags and fusion partners are left off.
# UniProt Q2HJ97: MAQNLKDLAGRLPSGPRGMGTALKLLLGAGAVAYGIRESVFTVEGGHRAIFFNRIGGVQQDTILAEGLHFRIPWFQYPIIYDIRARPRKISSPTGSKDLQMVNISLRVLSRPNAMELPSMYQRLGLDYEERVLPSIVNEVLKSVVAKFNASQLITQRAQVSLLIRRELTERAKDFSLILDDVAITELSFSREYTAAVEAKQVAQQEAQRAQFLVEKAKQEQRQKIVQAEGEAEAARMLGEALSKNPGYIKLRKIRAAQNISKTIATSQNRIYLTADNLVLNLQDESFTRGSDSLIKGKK
# UniProt Q3ZC32: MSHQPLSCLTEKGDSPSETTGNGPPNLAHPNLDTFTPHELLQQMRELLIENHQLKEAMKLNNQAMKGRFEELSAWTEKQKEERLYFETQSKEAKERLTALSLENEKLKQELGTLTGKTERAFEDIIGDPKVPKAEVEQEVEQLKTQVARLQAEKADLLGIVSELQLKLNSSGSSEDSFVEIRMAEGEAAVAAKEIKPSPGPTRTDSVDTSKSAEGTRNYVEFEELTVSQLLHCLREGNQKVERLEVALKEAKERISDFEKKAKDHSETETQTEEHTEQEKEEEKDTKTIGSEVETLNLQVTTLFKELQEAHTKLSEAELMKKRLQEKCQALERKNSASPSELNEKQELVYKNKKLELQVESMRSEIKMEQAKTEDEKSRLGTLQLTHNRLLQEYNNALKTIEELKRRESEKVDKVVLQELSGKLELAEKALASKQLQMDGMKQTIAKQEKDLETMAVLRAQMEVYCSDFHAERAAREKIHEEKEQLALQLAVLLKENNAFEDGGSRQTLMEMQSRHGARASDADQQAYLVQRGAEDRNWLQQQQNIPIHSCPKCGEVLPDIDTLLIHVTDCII
# Like-named read-outs stand apart in the source and are kept apart here. No constants are given. Whether binding was seen depends on the method and setting. In cells and extracts the contact can be indirect. Some results given as binding are weak or reduced against the parent protein; the word gives no strength.
# T1: Prohibitin 1 (PHB1) (cattle (endogenous in bovine bladder mucosa)) (UniProt Q3T165)
# T1 sequence: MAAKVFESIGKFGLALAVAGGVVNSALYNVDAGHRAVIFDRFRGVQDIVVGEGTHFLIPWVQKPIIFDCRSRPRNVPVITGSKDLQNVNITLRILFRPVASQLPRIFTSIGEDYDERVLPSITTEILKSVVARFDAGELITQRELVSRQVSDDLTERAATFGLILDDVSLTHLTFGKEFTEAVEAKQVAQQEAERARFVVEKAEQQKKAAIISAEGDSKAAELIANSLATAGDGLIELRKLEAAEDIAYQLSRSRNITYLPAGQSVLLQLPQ
# Columns and labels:
# [1] = biological target: T1, Prohibitin 1 (PHB1) (cattle (endogenous in bovine bladder mucosa)); assay: co-IP; anti-PHB1 antibody on mitochondrial and cytosolic extracts (100 ug protein) of healthy and neoplastic bovine bladder mucosa; Protein A/G-Plus agarose overnight at 4 °C; Western blot; isotype IgG as control
# [2] = biological target: Prohibitin 2 (PHB2) (cattle (endogenous in bovine bladder mucosa)) (UniProt Q2HJ97); assay: co-IP; anti-PHB2 antibody on mitochondrial and cytosolic extracts (100 ug protein) of healthy and neoplastic (BPV-infected) bovine bladder mucosa; Protein A/G-Plus agarose overnight at 4 °C; four washes in complete lysis buffer; Western blot; isotype IgG as control
# [3] = biological target: Prohibitin 2 (PHB2) (cattle (endogenous in bovine bladder mucosa)) (UniProt Q2HJ97); assay: as above; remark: listed apart in the source
molecule,measurement,setting,value
Prohibitin 2 (PHB2) (from UniProt Q2HJ97 1-299),binding,[1],binds
optineurin (OPTN) (from UniProt Q3ZC32 1-573),binding,[2],binds
"Prohibitin 1 (PHB1) (protein, UniProt Q3T165 1-272) MAAKVFESIGKFGLALAVAGGVVNSALYNVDAGHRAVIFDRFRGVQDIVVGEGTHFLIPWVQKPIIFDCRSRPRNVPVITGSKDLQNVNITLRILFRPVASQLPRIFTSIGEDYDERVLPSITTEILKSVVARFDAGELITQRELVSRQVSDDLTERAATFGLILDDVSLTHLTFGKEFTEAVEAKQVAQQEAERARFVVEKAEQQKKAAIISAEGDSKAAELIANSLATAGDGLIELRKLEAAEDIAYQLSRSRNITYLPAGQSVLLQLPQ",binding,[3],binds
